Publication PMC10454331
These are yes or no findings as the source states them, for the method shown. A result given as binding can be weak or reduced; the word gives no strength.

What was measured:
[1] = biological target: IgG Fc binding protein (Fcgbp), murine (mouse (endogenous in murine duodenum and caecum/colon)); assay: SEC + native gel or EMSA; murine duodenal extract (four animals) on Superdex 75 HL (20 mM Tris-HCl pH 7.0, 30 mM NaCl); high-molecular-mass fractions B8 and B9 on 1% native AgGE with Western blots for Tff3, Fcgbp and Tff1; SDS-PAGE under reducing and non-reducing conditions
[2] = biological target: IgG Fc binding protein (Fcgbp), murine (mouse (endogenous in murine duodenum and caecum/colon)); assay: SEC + native gel or EMSA; extract of murine caecum plus total colon on Superdex 75 HL (20 mM Tris-HCl pH 7.0, 30 mM NaCl); high-molecular-mass fractions on 1% native AgGE with Western blots for Tff3, Fcgbp and Tff1

B1: Tff3 (trefoil factor family peptide 3), murine (protein, UniProt Q62395 23-81)
chain: ADYVGLSPSQCMVPANVRVDCGYPSVTSEQCNNRGCCFDSSIPNVPWCFKPLQETECTF
binding [1]: binds
binding [2]: binds
